For at least one compound, name, drawing or mass did not settle the structure. Where a SMILES comes first, the peptide text is derived from it. [ ]: non-standard residue; d: D form. 2Nal = N[C@@H](Cc1ccc2ccccc2c1)C(=O)O
Biological target: CXCR4 (Homo sapiens, UniProt P61073)
Assay: IC50 of cyclic peptides for targeting CXCR4
Type: binding
Details: peptide biovectors for targeting CXCR4

Amino acid sequences for entries named in this document (tags omitted).
UniProt P61073, whole entry, species assumed: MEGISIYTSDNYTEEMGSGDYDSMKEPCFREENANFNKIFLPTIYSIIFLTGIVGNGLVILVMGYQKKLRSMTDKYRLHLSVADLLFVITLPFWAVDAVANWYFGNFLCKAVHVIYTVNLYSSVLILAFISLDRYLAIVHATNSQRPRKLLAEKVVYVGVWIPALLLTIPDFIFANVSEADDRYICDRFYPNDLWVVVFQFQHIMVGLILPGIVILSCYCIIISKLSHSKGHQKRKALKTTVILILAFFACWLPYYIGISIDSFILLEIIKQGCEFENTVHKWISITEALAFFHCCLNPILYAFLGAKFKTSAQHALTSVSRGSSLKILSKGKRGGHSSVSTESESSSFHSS

With `C[C@H]1NC(=O)[C@H](Cc2ccc3ccccc3c2)NC(=O)[C@H](CCCNC(=N)N)NC(=O)[C@H](CCCNC(=N)N)NC(=O)[C@@H](Cc2ccc(O)cc2)NC1=O` [Cyclo(D-Tyr-Arg-Arg-Nal-D-Ala)] (cyclo([dY]RR[2Nal][dA])) the IC50 was 11 nM.
